# About 3,700 (1.2%) of roughly 300,000 compounds were called active. The inconclusive results got no clear call from the source; some entries with a clear call stand among them for comparison. The call rests on the fitted dose curve; tested in HEK293 cells. Potencies of inconclusive entries are doubtful fits and often do not repeat.
# Test: qHTS for Inhibitors of binding or entry into cells for Lassa Virus; further: nearly all actives have a fitted effect of over 50% in size
# Settings: Lassa virus pseudotype entry inhibition, cell reporter; activity change, negative = inhibition: at 37.9 µM (top of the series) unless noted
# On the % scale 0 is the no-effect control and ±100 the full control effect; potency means the concentration at half of the fitted maximal effect.
Compound,Potency,"activity change, negative = inhibition"
CCCCS(=O)c1c(O)c2ccccc2[nH]c1=O (centres undefined),"inconclusive: 1.12 µM [activator, single point]",
Cc1ccc(-c2ccc(CCC(=O)O)n2NC(N)=S)cc1,"inconclusive: 1.12 µM [activator, full curve, poor fit]",
CCOC(=O)c1ccc(NC(=O)CN(C)S(=O)(=O)c2ccc(OC)cc2)cc1,"inconclusive: 0.0052 µM [inhibitor, full curve, poor fit]",
CCOC(=O)Cc1csc(NC(=S)NC(=O)c2cccc([N+](=O)[O-])c2)n1,"inconclusive: 0.461 µM [inhibitor, full curve, poor fit]",
Cc1cc(C)n(-c2ccc(N3CCOCC3)nn2)n1,"inconclusive: 14.1 µM [activator, single point]",
CCCCCCCn1ccc(=N)cc1,"inconclusive: 7.08 µM [inhibitor, full curve, poor fit]",
CCOc1ccc(NC(=O)CSc2nc3ccccc3c(=O)n2CCCC(=O)NCC2CCCO2)cc1 (centres undefined),"inconclusive: 5.62 µM [inhibitor, single point]",
O=C(CN1CCN(c2ccccn2)CC1)Nc1ccc(Cl)c(C(F)(F)F)c1,"inconclusive: 12.6 µM [inhibitor, partial curve, poor fit]",
O=C(/C=C/c1c(Cl)nc2ccccn12)Nc1ccc(F)cc1,"inconclusive: 35.5 µM [inhibitor, single point]",
COc1cccc(C(=O)NCCS(=O)(=O)N2CCc3ccccc3C2)c1,inactive,
CCOC(=O)c1c(-c2cccc(C)c2)csc1NC(=O)c1c(-c2ccccc2)noc1C,active: 0.562 µM,
CN1CCN(c2ccc(NC(=S)NC(=O)c3cccc4c(Br)cccc34)cc2)CC1,inactive,
COc1ccc(CNC(=O)c2cc3cccc(OC)c3oc2=N)cc1,"inconclusive: 14.1 µM [inhibitor, single point]",
COc1ccc(C)cc1NC(=O)Cn1nc(N2CCN(c3ccccc3OC)CC2)ccc1=O,inactive,
N=c1sc2c(n1Cc1ccccc1)CCCC2,inactive,
COc1ccc(-c2ccc(SC)nn2)cc1,active: 3.55 µM,
OCCCCNCc1ccc(OCc2ccccc2)cc1,inactive,
COc1cc(CN(CCc2c(C)[nH]c3ccc(C)cc23)C(=S)NC(C)(C)C)cc(OC)c1OC,"inconclusive: 29.1 µM [inhibitor, single point]",
Cc1cccc(C)c1NC(=O)c1c(C)nn(-c2ccccc2)c1Cl,inactive,
CCCCOc1ccc(-c2c(C#N)c(N)nc(SCC(N)=O)c2C#N)cc1,active: 4.47 µM,
CCOC(=O)CCCCCCCCC(=O)Nc1ccc(-n2[nH]c(=O)cc2C)cc1,inactive,
CCc1ccc(-n2c(N3CCN(c4ccc(F)cc4)CC3)nc3ccccc3c2=O)cc1,inactive,
COc1ccc(NC(=O)C(NC(=O)/C=C\c2ccc3c(c2)OCO3)c2ccc(C)cc2)cc1 (centres undefined),inactive,

# Pulled by structure from the entries so far:
Compound,Potency,"activity change, negative = inhibition"
CCCCOc1ccc(-c2c(C#N)c(N)nc(SCC(N)=O)c2C#N)cc1,active: 4.47 µM,
COc1ccc(NC(=O)C(NC(=O)/C=C\c2ccc3c(c2)OCO3)c2ccc(C)cc2)cc1 (centres undefined),inactive,
CCCCS(=O)c1c(O)c2ccccc2[nH]c1=O (centres undefined),"inconclusive: 1.12 µM [activator, single point]",
CCOC(=O)c1c(-c2cccc(C)c2)csc1NC(=O)c1c(-c2ccccc2)noc1C,active: 0.562 µM,

# Additional records follow.

Compound,Potency,"activity change, negative = inhibition"
COc1ccc(Nc2nnc(C)c3ccccc23)cc1C(N)=O,"inconclusive: 29.1 µM [activator, single point]",
CN(C)c1cccc(-c2nnc(SCCCC#N)o2)c1,"inconclusive: 16.4 µM [inhibitor, single point]",
Cc1ccc2c(Cl)c(C(=O)Nc3cccnc3)sc2c1,"inconclusive: 6.51 µM [inhibitor, single point]",
CN(C)c1cccc(C(=O)OCc2cc(=O)oc3cc(O)ccc23)c1,"inconclusive: 15.8 µM [inhibitor, single point]",
COc1ccc(-c2nc3ccccc3s2)cc1NC(=O)c1cc(OC)c(OC)c(OC)c1,inactive,
CCOc1ccc(-c2cc(CCCC(=O)NCCCOC)no2)cc1,"inconclusive: 16.4 µM [inhibitor, partial curve]",
COc1ccc(CC(=O)N2CCc3c([nH]c4ccccc34)C2c2ccc(SC)cc2)cc1 (centres undefined),"inconclusive: 1.41 µM [inhibitor, full curve, poor fit]",
COc1cccc2cc(-c3cn4ccc(C)cc4n3)c(=O)oc12,"inconclusive: 0.231 µM [activator, full curve, poor fit]",
CN(C)c1ccc(/C=C(\Cl)c2nc3ccccc3s2)cc1,"inconclusive: 3.16 µM [inhibitor, full curve, poor fit]",
CC(=O)N1CCCc2cc(S(=O)(=O)Nc3ccc(Cl)cc3F)ccc21,"inconclusive: 7.08 µM [inhibitor, partial curve, poor fit]",
COc1cccc(-c2ccc(SCC(=O)NCCc3ccccc3)nn2)c1,inactive,
C/C(=N\NC(=O)c1ccccc1O)c1cccs1,"inconclusive: 7.08 µM [inhibitor, partial curve, poor fit]",
CCN(CC(=O)NCc1ccc(Cl)cc1)C(=O)CSc1cc(C)ccc1C,"inconclusive: 22.4 µM [inhibitor, partial curve, poor fit]",
O=C(Nc1ccc2c(c1)OCCO2)C1CC(c2ccccc2Cl)=NO1 (centres undefined),inactive,
CCC(C(=O)N1CCOCC1)n1nc(C)n2c(cc3cc(C)ccc32)c1=O (centres undefined),inactive,
Cc1ccc(S(=O)(=O)N2CCN(Cc3ccccc3)CC2)c(C)c1N(C)S(=O)(=O)c1ccccc1,"inconclusive: 12.6 µM [inhibitor, single point]",
COc1ccc(C(=O)Nc2nc(-c3ccc(Br)cc3)ns2)cc1,"inconclusive: 31.6 µM [activator, partial curve, poor fit]",
COc1ccc(OCC(=O)Nc2ccc(OC)c(S(=O)(=O)N3CCCCC3)c2)cc1,"inconclusive: 8.91 µM [inhibitor, partial curve]",
O=S(=O)(c1ccc2ccccc2c1)N1CCC(c2nc(-c3ccncc3)no2)CC1,inactive,
Cc1c(C=O)c2ccccc2n1Cc1ccc(F)cc1,"inconclusive: 28.2 µM [inhibitor, single point]",
CCN(C(=O)COC(=O)c1ccc(-n2c(C)ccc2C)cc1)c1c(N)n(Cc2ccccc2)c(=O)[nH]c1=O,inactive,
CCOC(=O)c1sc2nc(-c3cccnc3)ccc2c1N,active: 6.31 µM,
Cc1cc(C(=O)CCl)c(C)n1Cc1ccco1,"inconclusive: 11.2 µM [inhibitor, partial curve, poor fit]",

Compound,Potency,"activity change, negative = inhibition"
O=C(NCCC(=O)N1CCN(c2ccccc2O)CC1)c1ccc(Cl)cc1,"inconclusive: 3.16 µM [inhibitor, partial curve, poor fit]",
CCN(CC(=O)Nc1c(F)cccc1F)C(=O)c1cccc(S(=O)(=O)N2CCN(c3ccccc3)CC2)c1,"inconclusive: 35.5 µM [inhibitor, single point]",
NC(=O)c1ccc(NC(=O)C#Cc2ccccc2)cc1,active: 2.24 µM,
COc1cc(C(=S)N2CCN(C)CC2)ccc1OCC(=O)NCc1ccccc1,"inconclusive: 6.31 µM [inhibitor, partial curve, poor fit]",
CCCOc1ccc(N2C(=O)CC(N(CCc3ccc(OC)cc3)C(=O)c3cccc(F)c3)C2=O)cc1 (centres undefined),"inconclusive: 22.4 µM [inhibitor, partial curve, poor fit]",
COc1ccccc1CNc1nccn(-c2ccc(F)cc2)c1=O,"inconclusive: 35.5 µM [activator, partial curve, poor fit]",
O=C(Nc1cccnc1)c1ccc(S(=O)(=O)c2ccc(Cl)cc2)cc1,"inconclusive: 22.4 µM [inhibitor, partial curve, poor fit]",
O=C(N/N=C/c1ccc2c(c1)OCO2)c1cc(-c2ccccc2)nc2ccccc12,"inconclusive: 15.8 µM [inhibitor, single point]",
Cc1cc(C)n2ncc(/C(N)=N/OC(=O)c3ccccc3F)c2n1,inactive,
CCCNC(=O)c1ccc(Cn2c(SCC(=O)NC(C)C)nc3ccccc3c2=O)cc1,inactive,
CCOCCc1nn2c(=O)cc(COC(=O)c3ccc(NC(=O)c4cccs4)cc3)nc2s1,,inconclusive: 10.4% [activator] [at 46.1 µM]
CC(C)(C)OC(=O)N1CCNc2ccccc2C1,"inconclusive: 1.26 µM [activator, single point]",
O=S(=O)(Nc1ccc2c(c1)OCO2)c1cccs1,inactive,
COc1cccc(O[C@@H]2O[C@@H]3COC(C)(C)O[C@H]3[C@H](O)[C@H]2NC(C)=O)c1,inactive,
CCN1C=C(C(=O)OC)C(c2cccc(C)c2)C(C(=O)OC)=C1,inactive,
CCCCC(CC)Cn1c(N)c(C#N)c2nc3ccccc3nc21 (centres undefined),"inconclusive: 0.0065 µM [inhibitor, full curve, poor fit]",
COc1ccc(/C=C/C(=O)c2ccccc2O)cc1CN1CCOCC1,"inconclusive: 22.4 µM [inhibitor, single point]",
COc1c(C)cc(C(=O)C2CCCN(C(=O)c3ccc4[nH]ccc4c3)C2)cc1C (centres undefined),active: 4.47 µM,
O=S(=O)(CC(CN1CCCCC1)N1CCCCC1)c1ccc2ccccc2c1 (centres undefined),"inconclusive: 4.47 µM [inhibitor, full curve, poor fit]",
CC(C)(C)c1ccc(S(=O)(=O)N2CCC(NC(=O)c3ccco3)CC2)cc1,inactive,
COC[C@H]1O[C@]2(c3ccccc3)CO[C@@H]1[C@@H](C=Cc1ccccc1)C2,"inconclusive: 5.96 µM [inhibitor, single point]",
O=C(Nc1nc(-c2cccs2)c(-c2cccs2)s1)C1(c2ccccc2)CC1,"inconclusive: 3.55 µM [inhibitor, partial curve, poor fit]",
CC(C)(C)CC(C)(C)NCC(O)COc1c(F)cc(Br)cc1F (centres undefined),"inconclusive: 35.5 µM [inhibitor, single point]",

# — PubChem BioAssay AID540256 (National Center for Advancing Translational Sciences (NCATS), 2011)
